Inconclusive results, whose numbers are uncertain, are shown with a selection of clear calls. Potencies beside an inconclusive call are fits to weak or partial responses and may not hold up. Active and inactive are the calls of the source. Calls follow the shape of the dose curve; as a rule, active = well fitted curve in the direction sought with a large enough effect; inconclusive = small, poorly fitted or top-dose-only effect, or another doubt; inactive = no such curve, though single readings can be large; an effect the other way counts as inactive or inconclusive.
Experiments:
[1] = Quantitative High-Throughput drug screen in 47 multiple myeloma cell lines against the NCATS MIPE library collection: JIM3_ECACC cell viability assay (AID 1918963; also: nearly all actives have a fitted effect of over 35% in size); settings: JIM3 myeloma viability, CellTiter-Glo ATP, 48 h; series mostly up to 45.8 µM
Outline: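 CellTiter-Glo luminescence (ATP) after 48 h compound exposure, 37C/5% CO2; 500 cells/well; MIPE 4.0 approved/investigational drugs pinned in; DMSO = 100%, media only = 0% viability.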

[2] = Quantitative High-Throughput drug screen in 47 multiple myeloma cell lines against the NCATS MIPE library collection: JIM1_ECACC cell viability assay (AID 1918964); settings: JIM1 myeloma viability, CellTiter-Glo ATP luminescence, 48 h; viability (% of DMSO): at 45.8 µM (top of the series)
Outline: (§1)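 Relative luminescence from CellTiter-Glo served as the viability signal, referenced to DMSO-treated (100%) and cell-free medium (0%) controls. Treatment lasted 48 hours at 37C with 500 cells per well.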

[3] = Quantitative High-Throughput drug screen in 47 multiple myeloma cell lines against the NCATS MIPE library collection: JJN3_DSMZ cell viability assay (AID 1918966; also: nearly all actives have a fitted effect of over 50% in size); settings: JJN3 myeloma cells viability, CellTiter-Glo ATP, 48 h; series mostly up to 45.8 µM
Outline: as §1

[4] = Quantitative High-Throughput drug screen in 47 multiple myeloma cell lines against the NCATS MIPE library collection: KMS12BM_JCRB cell viability assay (AID 1918971); also: nearly all actives have a fitted effect of over 35% in size
Outline: (§2)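 We plated 500 myeloma cells per well, pinned in MIPE 4.0 compounds, and incubated for 48 hours at 37C. ATP was then quantified with CellTiter-Glo, with DMSO and media-only wells defining 100% and 0%.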

[5] = Quantitative High-Throughput drug screen in 47 multiple myeloma cell lines against the NCATS MIPE library collection: KMS12PE_JCRB cell viability assay (AID 1918972); settings: KMS12PE myeloma viability, CellTiter-Glo ATP, 48 h; viability: at 45.8 µM (top of the series); also: nearly all actives have a fitted effect of over 30% in size
Outline: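 Myeloma cells (500 per well) were exposed to MIPE 4.0 compounds by pin transfer and incubated 48 hours at 37C, 5% CO2. Viability was read as ATP by CellTiter-Glo luminescence, normalised to DMSO (100%) and media-only (0%) wells.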

[6] = Quantitative High-Throughput drug screen in 47 multiple myeloma cell lines against the NCATS MIPE library collection: KMS20_JCRB cell viability assay (AID 1918973); settings: CellTiter-Glo ATP, 48 h; viability (% of DMSO): at 45.8 µM (top of the series); also: nearly all actives have a fitted effect of over 45% in size
Outline: as §1

[7] = Quantitative High-Throughput drug screen in 47 multiple myeloma cell lines against the NCATS MIPE library collection: KMS26_JCRB cell viability assay (AID 1918975); settings: KMS26 myeloma cells viability, CellTiter-Glo ATP, 48 h; viability (% of DMSO): at 45.8 µM (top of the series); also: nearly all actives have a fitted effect of over 45% in size
Outline: as §2

[8] = Quantitative High-Throughput drug screen in 47 multiple myeloma cell lines against the NCATS MIPE library collection: MMM1_PLB cell viability assay (AID 1918976); also: nearly all actives have a fitted effect of over 35% in size
Outline: (§3)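 Myeloma cells (500/well) treated with MIPE 4.0 compounds for 48 h at 37 °C, 5% CO2. Viability read as ATP via CellTiter-Glo luminescence after 5 min at RT; DMSO-only wells = 100%, media-only = 0% viability.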

[9] = Quantitative High-Throughput drug screen in 47 multiple myeloma cell lines against the NCATS MIPE library collection: MOLP8_DSMZ cell viability assay (AID 1918977); settings: MOLP8 myeloma viability, CellTiter-Glo ATP luminescence, 48 h; viability (% of control): at 45.8 µM (top of the series); also: nearly all actives have a fitted effect of over 45% in size
Outline: as §3

[10] = Quantitative High-Throughput drug screen in 47 multiple myeloma cell lines against the NCATS MIPE library collection: NCIH929_DSMZ cell viability assay (AID 1918978); also: nearly all actives have a fitted effect of over 35% in size
Outline: as §3

[11] = Quantitative High-Throughput drug screen in 47 multiple myeloma cell lines against the NCATS MIPE library collection: MM1R_ATCC cell viability assay (AID 1918981); also: nearly all actives have a fitted effect of over 35% in size
Outline: as §3

[12] = Quantitative High-Throughput drug screen in 47 multiple myeloma cell lines against the NCATS MIPE library collection: KMS27_JCRB cell viability assay (AID 1918970); settings: KMS27 myeloma cells, CellTiter-Glo ATP viability, 48 h; viability (% of DMSO): at 45.8 µM (top of the series); also: nearly all actives have a fitted effect of over 30% in size
Outline: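 Each line is seeded at 500 cells per well and treated with library compounds for 48 hours under 37 °C, 5% CO2. CellTiter-Glo is then added for 5 min at room temperature before median relative luminescence is recorded.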

[13] = Quantitative High-Throughput drug screen in 47 multiple myeloma cell lines against the NCATS MIPE library collection: KMS21BM_JCRB cell viability assay (AID 1918974); settings: ATP luminescence, 48 h; viability: at 45.8 µM (top of the series) unless noted
Outline: as §1

[14] = Quantitative High-Throughput drug screen in 47 multiple myeloma cell lines against the NCATS MIPE library collection: OCIMY1_PLB cell viability assay (AID 1918979); also: nearly all actives have a fitted effect of over 35% in size
Outline: as §3

[15] = Quantitative High-Throughput drug screen in 47 multiple myeloma cell lines against the NCATS MIPE library collection: LP1_DSMZ cell viability assay (AID 1918982); also: nearly all actives have a fitted effect of over 35% in size
Outline: as §3

[16] = Quantitative High-Throughput drug screen in 47 multiple myeloma cell lines against the NCATS MIPE library collection: Karpas25_ECACC cell viability assay (AID 1918968; also: nearly all actives have a fitted effect of over 35% in size); settings: Karpas25 myeloma viability, CellTiter-Glo ATP, 48 h; viability (% of control): at 45.8 µM (top of the series)
Outline: as §1

[17] = Quantitative High-Throughput drug screen in 47 multiple myeloma cell lines against the NCATS MIPE library collection: MM1S_ATCC cell viability assay (AID 1918980); also: nearly all actives have a fitted effect of over 45% in size
Outline: as §3

[18] = Quantitative High-Throughput drug screen in 47 multiple myeloma cell lines against the NCATS MIPE library collection: KMS28PE_JCRB cell viability assay (AID 1918983); also: nearly all actives have a fitted effect of over 35% in size
Outline: as §3

[19] = Quantitative High-Throughput drug screen in 47 multiple myeloma cell lines against the NCATS MIPE library collection: H1112_PLB cell viability assay (AID 1918967; also: nearly all actives have a fitted effect of over 30% in size); settings: H1112 myeloma cells viability, ATP luminescence, 48 h; viability: at 45.8 µM (top of the series)
Outline: as §1

Measured: Potency
Potency is read from the fitted curve at half-maximal effect.

COC[C@@H](c1ccc(C(F)(F)F)cc1)N1CCN(C2(C)CCN(C(=O)c3c(C)ncnc3C)CC2)C[C@H]1C
inconclusive: [1] 33.2 µM [cytotoxic, single point] | [2] 11.8 µM [cytotoxic, partial curve, poor fit] | [3] 0.0209 µM [rising, full curve, poor fit] | [5] 33.2 µM [cytotoxic, single point] | [6] 5.26 µM [rising, partial curve, poor fit] | [8] 0.0021 µM [rising, full curve, poor fit]
active: [10] 9.35 µM
inactive: [4] | [7] | [9] | [11]

CC(=O)OCC(=O)[C@@]12N=C(C)O[C@H]1C[C@H]1[C@@H]3CCC4=CC(=O)C=C[C@]4(C)[C@@H]3[C@@H](O)C[C@@]12C
inconclusive: [1] 33.2 µM [cytotoxic, single point] | [2] 0.209 µM [cytotoxic, full curve, poor fit] | [3] 13.2 µM [cytotoxic, single point] | [12] 0.0047 µM [rising, full curve] | [13] 5.9 µM [cytotoxic, partial curve, poor fit] | [14] 9.35 µM [rising, partial curve, poor fit] | [15] 8.33 µM [cytotoxic, partial curve, poor fit]
inactive: [4] | [5] | [7] | [8] | [11]
active: [9] 16.6 µM

O=c1[nH]c(=O)n([C@H]2C[C@@H](O)[C@@H](CO)O2)cc1I
inactive: [2] | [3] | [16] | [4] | [7] | [9] | [15] | [18]
inconclusive: [1] 18.7 µM [cytotoxic, partial curve, poor fit] | [6] 0.0187 µM [cytotoxic, full curve, poor fit] | [13] 13.2 µM [cytotoxic, partial curve, poor fit] | [8] 0.0074 µM [rising, full curve, poor fit] | [17] 14.8 µM [cytotoxic, partial curve, poor fit]

Nc1ncnc2c1nc(Cl)n2[C@@H]1O[C@H](CO)[C@@H](O)[C@@H]1O
active: [2] 16.6 µM | [3] 16.6 µM | [4] 23.5 µM | [5] 14.8 µM | [6] 4.69 µM | [18] 18.7 µM
inconclusive: [1] 18.7 µM [cytotoxic, partial curve] | [14] 16.6 µM [cytotoxic, partial curve]

N=C1SC(=Cc2ccc(-c3ccc4c(c3)C(=O)NC4=O)o2)C(=O)N1c1ccc(Br)cc1
inconclusive: [1] 2.96 µM [cytotoxic, partial curve, poor fit] | [5] 0.059 µM [cytotoxic, full curve, poor fit] | [6] 2.96 µM [cytotoxic, full curve, poor fit] | [13] 37.2 µM [rising, partial curve] | [10] 3.72 µM [cytotoxic, full curve, poor fit]
active: [8] 3.32 µM | [9] 3.72 µM | [14] 4.18 µM | [15] 2.96 µM
inactive: [2] | [19] | [12]

C=C1C(=O)OC2C=C(C)CCC=C(C)CCC12 (stereo not drawn)
active: [2] 14.8 µM | [16] 20.9 µM | [4] 20.9 µM | [13] 26.4 µM | [9] 16.6 µM | [18] 23.5 µM
inconclusive: [1] 20.9 µM [cytotoxic, partial curve] | [6] 20.9 µM [cytotoxic, partial curve, poor fit] | [7] 20.9 µM [cytotoxic, partial curve, poor fit] | [14] 33.2 µM [cytotoxic, single point] | [15] 23.5 µM [cytotoxic, partial curve]

NC(=O)c1ncn([C@@H]2O[C@H](CO)[C@@H](O)[C@@H]2O)c1O
inconclusive: [2] 0.0132 µM [cytotoxic, full curve, poor fit] | [3] 37.2 µM [cytotoxic, partial curve, poor fit] | [13] 11.8 µM [rising, partial curve] | [7] 5.9 µM [cytotoxic, partial curve, poor fit] | [15] 37.2 µM [cytotoxic, partial curve, poor fit] | [18] 0.0526 µM [cytotoxic, full curve, poor fit]
not listed: [8] | [12] | [14] | [16] | [19]
inactive: all other assays above

Cc1nnc(C(C)C)n1C1C[C@H]2CC[C@@H](C1)N2CC[C@H](NC(=O)C1CCC(F)(F)CC1)c1ccccc1 (stereo partly drawn)
inactive: [1] | [9] | [15]
inconclusive: [2] 13.2 µM [cytotoxic, partial curve, poor fit] | [3] 0.0093 µM [rising, full curve, poor fit] | [12] 20.9 µM [cytotoxic, partial curve, poor fit] | [4] 0.003 µM [rising, full curve, poor fit] | [5] 37.2 µM [cytotoxic, single point] | [6] 18.7 µM [cytotoxic, partial curve, poor fit] | [7] 0.833 µM [cytotoxic, full curve, poor fit] | [8] 0.0012 µM [rising, full curve, poor fit] | [14] 0.0019 µM [rising, full curve, poor fit]

c1cc(-c2sc(-c3ccncc3)c(-c3ccncc3)c2-c2ccncc2)ccn1
inconclusive: [1] 10.5 µM [cytotoxic, partial curve, poor fit] | [2] 8.33 µM [cytotoxic, full curve, poor fit] | [19] 16.6 µM [cytotoxic, partial curve] | [16] 10.5 µM [cytotoxic, partial curve] | [4] 26.4 µM [cytotoxic, single point] | [6] 23.5 µM [cytotoxic, partial curve, poor fit] | [7] 20.9 µM [cytotoxic, partial curve, poor fit] | [8] 0.0053 µM [rising, full curve, poor fit] | [11] 37.2 µM [cytotoxic, single point]
inactive: [9] | [15]

CC1(C)CCC(C)(C)c2cc(NC(=O)c3ccc(C(=O)O)cc3)ccc21
inactive: [2]
inconclusive: [1] 5.9 µM [cytotoxic, partial curve, poor fit] | [3] 16.6 µM [cytotoxic, partial curve] | [4] 33.2 µM [cytotoxic, single point] | [6] 2.64 µM [cytotoxic, full curve, poor fit] | [13] 18.7 µM [cytotoxic, partial curve, poor fit] | [7] 20.9 µM [cytotoxic, partial curve, poor fit] | [8] 0.0059 µM [rising, full curve, poor fit] | [15] 18.7 µM [cytotoxic, partial curve] | [18] 16.6 µM [cytotoxic, partial curve, poor fit]

Cc1ccn(-c2ccc(-c3ncco3)cc2)c(=O)c1-c1ccc2nc(N)ncc2c1
inactive: [12]
active: [1] 10.5 µM | [5] 5.26 µM | [6] 8.33 µM
inconclusive: [2] 3.32 µM [cytotoxic, partial curve] | [3] 23.5 µM [cytotoxic, single point] | [13] 2.09 µM [cytotoxic, full curve, poor fit] | [7] 1.05 µM [rising, full curve, poor fit] | [8] 0.0066 µM [rising, full curve, poor fit] | [9] 4.69 µM [cytotoxic, full curve, poor fit] | [17] 33.2 µM [cytotoxic, single point] | [11] 37.2 µM [cytotoxic, single point]

O=C(O)c1ccc(-c2cc3cccnc3c(-c3ccc4nonc4c3)n2)cc1
active: [16] 23.5 µM | [6] 11.8 µM
inconclusive: [1] 29.6 µM [cytotoxic, single point] | [2] 33.2 µM [cytotoxic, partial curve, poor fit] | [19] 26.4 µM [cytotoxic, single point] | [12] 23.5 µM [cytotoxic, partial curve, poor fit] | [7] 37.2 µM [cytotoxic, single point] | [14] 29.6 µM [cytotoxic, single point] | [11] 18.7 µM [cytotoxic, partial curve, poor fit] | [15] 26.4 µM [cytotoxic, single point] | [18] 37.2 µM [cytotoxic, single point]

Source: PubChem BioAssay (NCATS)
